Reference: PubChem BioAssay AID493246 (Drosophila RNAi Screening Center, 2011)
In all, the deposit lists about 21,000 reagents; shown is an unselected part of those with a known target gene and a result. Over the whole deposit, 429 (2%) were called active. 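Values are raw and not normalised between plates; calls rest on per-plate z-scores that were not deposited.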 Names joined by + are all predicted targets of the reagent. Reagent sequences are not shown. Not stated in the record: the amount of reagent, the time to read-out.

Purpose: 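Identify essential fly genes by loss of cell viability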 (primary screen)
Cells: Drosophila Kc and S2R+ cells
Reagents: long dsRNA against Drosophila genes
Read-out: 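Cell number per well after knock-down, printed as raw plate values; calls were based on per-plate z-scores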
Direction: Kc cell number and S2R+ cell number: higher = more cells remaining
Call rule: 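Active when the per-plate z-score of cell number is 3 or more in the direction of fewer cells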

With scb [DRSC05542], how do the results read?
Kc cell number, rep 1: 1.42e6; Kc cell number, rep 2: 1.39e6; S2R+ cell number, rep 1: 9.83e5; S2R+ cell number, rep 2: 1.14e6; Outcome: inactive

What is on record for scb [DRSC07678]?
Kc cell number, rep 1: 1.56e6; Kc cell number, rep 2: 1.58e6; S2R+ cell number, rep 1: 1.33e6; S2R+ cell number, rep 2: 1.53e6; Outcome: inactive

With OdsH [DRSC20263], what does the deposit list?
Kc cell number, rep 1: 1.69e6; Kc cell number, rep 2: 1.71e6; S2R+ cell number, rep 1: 1.15e6; S2R+ cell number, rep 2: 1.22e6; Outcome: inactive

What did the screen give for mira [DRSC16998]?
Kc cell number, rep 1: 1.46e6; Kc cell number, rep 2: 1.62e6; S2R+ cell number, rep 1: 1.12e6; S2R+ cell number, rep 2: 1.17e6; Outcome: inactive

What is on record for pippin [DRSC04489]?
Kc cell number, rep 1: 1.34e6; Kc cell number, rep 2: 1.43e6; S2R+ cell number, rep 1: 9.76e5; S2R+ cell number, rep 2: 9.66e5; Outcome: inactive

With Adk3 [DRSC05917], how do the results read?
Kc cell number, rep 1: 1.54e6; Kc cell number, rep 2: 1.58e6; S2R+ cell number, rep 1: 1.21e6; S2R+ cell number, rep 2: 1.32e6; Outcome: inactive

For Pdss2 [DRSC11625], what does the deposit list?
Kc cell number, rep 1: 1.55e6; Kc cell number, rep 2: 1.61e6; S2R+ cell number, rep 1: 1.35e6; S2R+ cell number, rep 2: 1.39e6; Outcome: inactive

For mdy [DRSC01559], what does the deposit list?
Kc cell number, rep 1: 1.41e6; Kc cell number, rep 2: 1.48e6; S2R+ cell number, rep 1: 8.68e5; S2R+ cell number, rep 2: 1.06e6; Outcome: inactive

Which result is listed for mdy [DRSC02250]?
Kc cell number, rep 1: 1.35e6; Kc cell number, rep 2: 1.43e6; S2R+ cell number, rep 1: 1.35e6; S2R+ cell number, rep 2: 1.44e6; Outcome: inactive

With CG3124 [DRSC04339], what was measured?
Kc cell number, rep 1: 1.28e6; Kc cell number, rep 2: 1.38e6; S2R+ cell number, rep 1: 9.16e5; S2R+ cell number, rep 2: 9.62e5; Outcome: active

What is on record for CG13300 [DRSC09974]?
Kc cell number, rep 1: 1.59e6; Kc cell number, rep 2: 1.60e6; S2R+ cell number, rep 1: 1.08e6; S2R+ cell number, rep 2: 1.06e6; Outcome: inactive

With CycB3 [DRSC16618], how do the results read?
Kc cell number, rep 1: 1.60e6; Kc cell number, rep 2: 1.61e6; S2R+ cell number, rep 1: 9.15e5; S2R+ cell number, rep 2: 1.02e6; Outcome: inactive

What is on record for Ref1 [DRSC12497]?
Kc cell number, rep 1: 1.47e6; Kc cell number, rep 2: 1.64e6; S2R+ cell number, rep 1: 1.04e6; S2R+ cell number, rep 2: 1.16e6; Outcome: inactive

What did the screen give for l(2)41Ab [DRSC21007]?
Kc cell number, rep 1: 1.19e6; Kc cell number, rep 2: 1.38e6; S2R+ cell number, rep 1: 1.11e6; S2R+ cell number, rep 2: 1.22e6; Outcome: inactive

For CG11791 [DRSC14391], how do the results read?
Kc cell number, rep 1: 1.31e6; Kc cell number, rep 2: 1.54e6; S2R+ cell number, rep 1: 1.18e6; S2R+ cell number, rep 2: 1.27e6; Outcome: inactive

How did the screen score Trpml + CG42638 [DRSC11032]?
Kc cell number, rep 1: 1.45e6; Kc cell number, rep 2: 1.55e6; S2R+ cell number, rep 1: 1.08e6; S2R+ cell number, rep 2: 1.10e6; Outcome: inactive

Hits, among the entries above:
CG3124 [DRSC04339] | Kc cell number, rep 1 = 1.28e6; Kc cell number, rep 2 = 1.38e6; S2R+ cell number, rep 1 = 9.16e5; S2R+ cell number, rep 2 = 9.62e5; Outcome = active

Next reagents:
For Npc2d [DRSC14551], what does the deposit list?
Kc cell number, rep 1: 1.57e6; Kc cell number, rep 2: 1.54e6; S2R+ cell number, rep 1: 1.17e6; S2R+ cell number, rep 2: 1.31e6; Outcome: inactive

With BobA [DRSC09889], what was measured?
Kc cell number, rep 1: 1.32e6; Kc cell number, rep 2: 1.40e6; S2R+ cell number, rep 1: 1.14e6; S2R+ cell number, rep 2: 1.27e6; Outcome: inactive

How did the screen score Nopp140 [DRSC11872]?
Kc cell number, rep 1: 1.72e6; Kc cell number, rep 2: 1.81e6; S2R+ cell number, rep 1: 1.36e6; S2R+ cell number, rep 2: 1.47e6; Outcome: inactive

With CG1503 [DRSC20512], what was measured?
Kc cell number, rep 1: 1.44e6; Kc cell number, rep 2: 1.47e6; S2R+ cell number, rep 1: 9.76e5; S2R+ cell number, rep 2: 1.15e6; Outcome: inactive

For Hsp26 [DRSC11189], what does the deposit list?
Kc cell number, rep 1: 1.32e6; Kc cell number, rep 2: 1.37e6; S2R+ cell number, rep 1: 1.24e6; S2R+ cell number, rep 2: 1.25e6; Outcome: inactive

For Obp8a [DRSC17868], what does the deposit list?
Kc cell number, rep 1: 1.54e6; Kc cell number, rep 2: 1.54e6; S2R+ cell number, rep 1: 9.88e5; S2R+ cell number, rep 2: 1.13e6; Outcome: inactive

Which result is listed for CG8064 [DRSC16373]?
Kc cell number, rep 1: 1.61e6; Kc cell number, rep 2: 1.71e6; S2R+ cell number, rep 1: 1.35e6; S2R+ cell number, rep 2: 1.37e6; Outcome: inactive

For CG13223 [DRSC06344], how do the results read?
Kc cell number, rep 1: 1.51e6; Kc cell number, rep 2: 1.59e6; S2R+ cell number, rep 1: 1.25e6; S2R+ cell number, rep 2: 1.35e6; Outcome: inactive

What is on record for CycA [DRSC09132]?
Kc cell number, rep 1: 1.11e6; Kc cell number, rep 2: 1.28e6; S2R+ cell number, rep 1: 8.67e5; S2R+ cell number, rep 2: 1.01e6; Outcome: inactive

For CycA [DRSC11123], what does the deposit list?
Kc cell number, rep 1: 1.20e6; Kc cell number, rep 2: 1.38e6; S2R+ cell number, rep 1: 1.06e6; S2R+ cell number, rep 2: 9.73e5; Outcome: inactive

With Elk [DRSC07608], what was measured?
Kc cell number, rep 1: 1.57e6; Kc cell number, rep 2: 1.67e6; S2R+ cell number, rep 1: 1.15e6; S2R+ cell number, rep 2: 9.83e5; Outcome: inactive
